# Experimental data: publication PMC8384837
# Changes are numbered by the printed parent chain. This is one part of the list. For some assays here: At the low end of the ranking the order means little. For some assays here: The exact form of the protein is not confirmed.
# Columns and labels:
# Conditions in all cases: yeast three-hybrid, YBZ-1, SC-Leu-His + 0.5 mM 3-AT, 4 days
# [1] = target: T1, PUM1 PUF domain R4-SRC N971S + H972R + Q975C (Homo sapiens) (UniProt Q14671)
# T1 sequence: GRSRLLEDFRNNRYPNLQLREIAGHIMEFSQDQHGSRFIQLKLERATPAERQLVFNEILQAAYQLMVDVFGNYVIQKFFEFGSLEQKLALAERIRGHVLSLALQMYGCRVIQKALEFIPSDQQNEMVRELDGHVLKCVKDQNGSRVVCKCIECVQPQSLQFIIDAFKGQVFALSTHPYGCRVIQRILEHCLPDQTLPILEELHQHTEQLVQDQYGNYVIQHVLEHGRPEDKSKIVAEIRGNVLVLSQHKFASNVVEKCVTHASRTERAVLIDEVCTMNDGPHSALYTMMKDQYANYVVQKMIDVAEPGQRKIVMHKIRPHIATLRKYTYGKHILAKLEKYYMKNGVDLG
# [2] = target: T2, PUM1 PUF domain R4-SRI N971S + H972R + Q975I (Homo sapiens) (UniProt Q14671)
# T2 sequence: T1 sequence with C148I
# [3] = target: T3, PUM1 PUF domain R4-SRL N971S + H972R + Q975L (Homo sapiens) (UniProt Q14671)
# T3 sequence: T1 sequence with C148L
# [4] = target: T4, PUM1 PUF domain R4-SRW N971S + H972R + Q975W (Homo sapiens) (UniProt Q14671)
# T4 sequence: T1 sequence with C148W
# [5] = target: T5, PUM1 PUF domain R4-SRY N971S + H972R + Q975Y (Homo sapiens) (UniProt Q14671)
# T5 sequence: T1 sequence with C148Y
# [6] = target: T6, PUM1 PUF domain R4-SWG N971S + H972W + Q975G (Homo sapiens) (UniProt Q14671)
# T6 sequence: T1 sequence with R145W, C148G
# [7] = target: T7, PUM1 PUF domain R4-TAQ N971T + H972A (Homo sapiens) (UniProt Q14671)
# T7 sequence: T1 sequence with S144T, R145A, C148Q
# [8] = target: T8, PUM1 PUF domain R4-THP N971T + Q975P (Homo sapiens) (UniProt Q14671)
# T8 sequence: T1 sequence with S144T, R145H, C148P
# [9] = target: T9, PUM1 PUF domain R4-TPE N971T + H972P + Q975E (Homo sapiens) (UniProt Q14671)
# T9 sequence: T1 sequence with S144T, R145P, C148E
# [10] = target: T10, PUM1 PUF domain R4-TRG N971T + H972R + Q975G (Homo sapiens) (UniProt Q14671)
# T10 sequence: T1 sequence with S144T, C148G
# [11] = target: T11, PUM1 PUF domain R4-VCA N971V + H972C + Q975A (Homo sapiens) (UniProt Q14671)
# T11 sequence: T1 sequence with S144V, R145C, C148A
# [12] = target: T12, PUM1 PUF domain R4-VGI N971V + H972G + Q975I (Homo sapiens) (UniProt Q14671)
# T12 sequence: T1 sequence with S144V, R145G, C148I
# [13] = target: T13, PUM1 PUF domain R4-VGL N971V + H972G + Q975L (Homo sapiens) (UniProt Q14671)
# T13 sequence: T1 sequence with S144V, R145G, C148L
# [14] = target: T14, PUM1 PUF domain R4-VGY N971V + H972G + Q975Y (UniProt Q14671)
# T14 sequence: T1 sequence with S144V, R145G, C148Y
# [15] = target: T15, PUM1 PUF domain R4-VLY N971V + H972L + Q975Y (UniProt Q14671)
# T15 sequence: T1 sequence with S144V, R145L, C148Y
# [16] = target: T16, PUM1 PUF domain R4-VNG N971V + H972N + Q975G (Homo sapiens) (UniProt Q14671)
# T16 sequence: T1 sequence with S144V, R145N, C148G
# [17] = target: T17, PUM1 PUF domain R4-VRG N971V + H972R + Q975G (Homo sapiens) (UniProt Q14671)
# T17 sequence: T1 sequence with S144V, C148G
# [18] = target: T18, PUM1 PUF domain R4-VRT N971V + H972R + Q975T (Homo sapiens) (UniProt Q14671)
# T18 sequence: T1 sequence with S144V, C148T
# [19] = target: T19, PUM1 PUF domain R4-VSI N971V + H972S + Q975I (Homo sapiens) (UniProt Q14671)
# T19 sequence: T1 sequence with S144V, R145S, C148I
# [20] = target: T20, PUM1 PUF domain R4-VSL N971V + H972S + Q975L (UniProt Q14671)
# T20 sequence: T1 sequence with S144V, R145S, C148L
# [21] = target: T21, PUM1 PUF domain R4-WFG N971W + H972F + Q975G (Homo sapiens) (UniProt Q14671)
# T21 sequence: T1 sequence with S144W, R145F, C148G
# [22] = target: T22, PUM1 PUF domain R4-WGF N971W + H972G + Q975F (Homo sapiens) (UniProt Q14671)
# T22 sequence: T1 sequence with S144W, R145G, C148F
# [23] = target: T23, PUM1 PUF domain R4-WGM N971W + H972G + Q975M (Homo sapiens) (UniProt Q14671)
# T23 sequence: T1 sequence with S144W, R145G, C148M
# [24] = target: T24, PUM1 PUF domain R4-WST N971W + H972S + Q975T (Homo sapiens) (UniProt Q14671)
# T24 sequence: T1 sequence with S144W, R145S, C148T
# [25] = target: T25, PUM1 PUF domain R4-YLL N971Y + H972L + Q975L (UniProt Q14671)
# T25 sequence: T1 sequence with S144Y, R145L, C148L
# [26] = target: T26, PUM1 PUF domain R4-YRC N971Y + H972R + Q975C (UniProt Q14671)
# T26 sequence: T1 sequence with S144Y
# [27] = target: T27, PUM1 PUF domain R4-YRL N971Y + H972R + Q975L (Homo sapiens) (UniProt Q14671)
# T27 sequence: T1 sequence with S144Y, C148L
# [28] = target: T28, PUM1 PUF domain R5-PHQ R6-SWD C1007P + R1008H + N1043S + Y1044W + Q1047D (UniProt Q14671)
# T28 sequence: T1 sequence with S144N, R145H, C148Q, C180P, R181H, N216S, Y217W, Q220D
# [29] = target: T29, PUM1 PUF domain R6-SWD R7-NPG N1043S + Y1044W + Q1047D + S1079N + N1080P + E1083G (Homo sapiens) (UniProt Q14671)
# T29 sequence: T1 sequence with S144N, R145H, C148Q, N216S, Y217W, Q220D, S252N, N253P, E256G
sequence,measurement,setting,value
GGCUAGAACUAGUGGAUCCCCCGGCGCCCGGCGGCUCGAGCCCGGGUAAGUGUACAUAGUCUGCAUGCCGCCGGGCGCCAUGCCUGCAGGUCGACUCUAGAAAACAUG,binding signal (log2 enrichment (interaction score)),[1],-0.59
same,binding signal (log2 enrichment (interaction score)),[2],-0.07
same,binding signal (log2 enrichment (interaction score)),[3],-0.07
same,binding signal (log2 enrichment (interaction score)),[4],-0.06
same,binding signal (log2 enrichment (interaction score)),[5],-0.62
same,binding signal (log2 enrichment (interaction score)),[6],-4.67
same,binding signal (log2 enrichment (interaction score)),[7],-2.63
same,binding signal (log2 enrichment (interaction score)),[8],-1.42
same,binding signal (log2 enrichment (interaction score)),[9],1.24
same,binding signal (log2 enrichment (interaction score)),[10],-1.14
same,binding signal (log2 enrichment (interaction score)),[11],-1.11
same,binding signal (log2 enrichment (interaction score)),[12],-1.46
same,binding signal (log2 enrichment (interaction score)),[13],-2.95
same,binding signal (log2 enrichment (interaction score)),[14],< -6.93
same,binding signal (log2 enrichment (interaction score)),[15],< -7.45
same,binding signal (log2 enrichment (interaction score)),[16],0.34
same,binding signal (log2 enrichment (interaction score)),[17],-1.54
same,binding signal (log2 enrichment (interaction score)),[18],-0.53
same,binding signal (log2 enrichment (interaction score)),[19],-1.65
same,binding signal (log2 enrichment (interaction score)),[20],< -7.85
same,binding signal (log2 enrichment (interaction score)),[21],-0.96
same,binding signal (log2 enrichment (interaction score)),[22],-0.89
same,binding signal (log2 enrichment (interaction score)),[23],-2.38
same,binding signal (log2 enrichment (interaction score)),[24],-1
same,binding signal (log2 enrichment (interaction score)),[25],< -6.77
same,binding signal (log2 enrichment (interaction score)),[26],< -6.31
same,binding signal (log2 enrichment (interaction score)),[27],-1.24
same,binding signal (log2 enrichment (interaction score)),[28],-7.84
same,binding signal (log2 enrichment (interaction score)),[29],-0.91
